The source of these data is publication PMC7862700.

The list shows a part of the results. The source does not settle which construct or isoform was used.

In this assay the target is T1, ETS1 (UniProt P14921).
T1 sequence: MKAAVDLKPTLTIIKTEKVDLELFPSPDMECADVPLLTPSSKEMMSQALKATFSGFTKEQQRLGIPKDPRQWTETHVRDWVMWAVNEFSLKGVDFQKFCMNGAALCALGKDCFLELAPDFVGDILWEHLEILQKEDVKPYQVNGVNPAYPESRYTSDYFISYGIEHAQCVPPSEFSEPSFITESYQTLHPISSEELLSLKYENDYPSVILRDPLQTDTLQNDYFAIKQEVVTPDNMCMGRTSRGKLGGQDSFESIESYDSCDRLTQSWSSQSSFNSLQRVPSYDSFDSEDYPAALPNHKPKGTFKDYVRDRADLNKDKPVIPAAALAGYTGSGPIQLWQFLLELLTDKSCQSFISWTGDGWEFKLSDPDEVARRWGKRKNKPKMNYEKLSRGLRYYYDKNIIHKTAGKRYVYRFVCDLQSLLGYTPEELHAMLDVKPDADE
As to the kind of experiment: DAPPL (digital affinity profiling via proximity ligation, sequencing). To be noted: 10 mM Tris-HCl pH 7.5, 50 mM NaCl, 1 mM DTT, 4% glycerol, room temperature, 30 min; GST-TFs on glutathione beads, 16-mer random dsDNA library, 0.1% …; high values mean tight binding; double strand, one strand shown; scale: fold enrichment (6-mer frequency, TF over GST control).
In turn, TGATGC registered a binding signal of 1.63.
The same measure for TTCCAT: 1.32; for GAAGCG: 1.42; for TATTAC: 1.23.
The same measure for CACCGA: 1.04.
The same measure for AAACTA: 1.36; for CCTCAA: 1.39.
TCTCAT returned a binding signal of 1.4.
The same measure for CTGTTC: 1.41.
Sequence AGTGCA returned a binding signal of 0.957.
Sequence CCCCCC showed a binding signal of 1.05.
Consider AACTCC, for which the binding signal is 1.34.
Take TTGGTC: the binding signal worked out at 1.12.
The same measure for CGCCGG: 1.09; for AAAGAT: 1.18; for TACGGA: 1.38.
The same measure for TGTAAC: 1.35; for TCTATT: 1.34; for ACAGCT: 1.16.
CCACTG registered a binding signal of 1.44.
The same measure for TAAGAA: 1.11.
AGTGTC came in with a binding signal of 0.973.
The sequence TTCGCA displayed a binding signal of 1.26.
The same measure for AAGTTG: 1.07; for TCAAAG: 1.11; for CACAAG: 1.16.
For the sequence CACAAC, the binding signal came to 1.21.
TACATA: the binding signal is 1.25.
In the case of CTCATA, the binding signal was found to be 1.34.
The sequence CTGAAC came in with a binding signal of 1.34.
The same measure for TAAATT: 1.22.
The same measure for GTCTCC: 1.48; for TCCACG: 1.09; for GTTCGA: 1.19.
The same measure for CTATTT: 1.84.
In turn, GCCTAA yielded a binding signal of 1.14.
The same measure for TTCTGA: 1.27; for ACTGCA: 1.12.
The same measure for TTATCT: 1.45.
For the sequence TTTACC, the binding signal turned out to be 1.28.
